Literature values in patent publication US20080131503A1 (priority 2005, published 2008).

Assays:
[1] = at pH>6
[2] = system: plasma lipids (total-C, LDL-C, triglycerides, HDL)
[3] = evening drug administration compared with morning

Hydroxy acid form - lactone form equilibrium [1]: greatly favors the hydroxy acid form
Plasma concentration lower, AUC [3]: approximately 30%
Plasma concentration lower, Cmax [3]: approximately 30%
Decrease of extent of drug absorption by food, as assessed by AUC (with food): ~9%
Decrease of rate of drug absorption by food, as assessed by Cmax (with food): approximately 25%
SMILES: CC(C)c1c(C(=O)Nc2ccccc2)c(-c2ccccc2)c(-c2ccc(F)cc2)n1CC[C@@H](O)C[C@@H](O)CC(=O)O [Atorvastatin]
LDL-C reduction by time of day of drug administration ([2]; evening versus morning administration): the same
LDL-C reduction given with or without food ([2]; with or without food): similar
